# The other results are listed elsewhere or left out.
# Amino acid sequences for entries named in this document (tags omitted). A change or cut given only in a name is not applied to a line headed by its entry.
# UniProt Q8IUG5: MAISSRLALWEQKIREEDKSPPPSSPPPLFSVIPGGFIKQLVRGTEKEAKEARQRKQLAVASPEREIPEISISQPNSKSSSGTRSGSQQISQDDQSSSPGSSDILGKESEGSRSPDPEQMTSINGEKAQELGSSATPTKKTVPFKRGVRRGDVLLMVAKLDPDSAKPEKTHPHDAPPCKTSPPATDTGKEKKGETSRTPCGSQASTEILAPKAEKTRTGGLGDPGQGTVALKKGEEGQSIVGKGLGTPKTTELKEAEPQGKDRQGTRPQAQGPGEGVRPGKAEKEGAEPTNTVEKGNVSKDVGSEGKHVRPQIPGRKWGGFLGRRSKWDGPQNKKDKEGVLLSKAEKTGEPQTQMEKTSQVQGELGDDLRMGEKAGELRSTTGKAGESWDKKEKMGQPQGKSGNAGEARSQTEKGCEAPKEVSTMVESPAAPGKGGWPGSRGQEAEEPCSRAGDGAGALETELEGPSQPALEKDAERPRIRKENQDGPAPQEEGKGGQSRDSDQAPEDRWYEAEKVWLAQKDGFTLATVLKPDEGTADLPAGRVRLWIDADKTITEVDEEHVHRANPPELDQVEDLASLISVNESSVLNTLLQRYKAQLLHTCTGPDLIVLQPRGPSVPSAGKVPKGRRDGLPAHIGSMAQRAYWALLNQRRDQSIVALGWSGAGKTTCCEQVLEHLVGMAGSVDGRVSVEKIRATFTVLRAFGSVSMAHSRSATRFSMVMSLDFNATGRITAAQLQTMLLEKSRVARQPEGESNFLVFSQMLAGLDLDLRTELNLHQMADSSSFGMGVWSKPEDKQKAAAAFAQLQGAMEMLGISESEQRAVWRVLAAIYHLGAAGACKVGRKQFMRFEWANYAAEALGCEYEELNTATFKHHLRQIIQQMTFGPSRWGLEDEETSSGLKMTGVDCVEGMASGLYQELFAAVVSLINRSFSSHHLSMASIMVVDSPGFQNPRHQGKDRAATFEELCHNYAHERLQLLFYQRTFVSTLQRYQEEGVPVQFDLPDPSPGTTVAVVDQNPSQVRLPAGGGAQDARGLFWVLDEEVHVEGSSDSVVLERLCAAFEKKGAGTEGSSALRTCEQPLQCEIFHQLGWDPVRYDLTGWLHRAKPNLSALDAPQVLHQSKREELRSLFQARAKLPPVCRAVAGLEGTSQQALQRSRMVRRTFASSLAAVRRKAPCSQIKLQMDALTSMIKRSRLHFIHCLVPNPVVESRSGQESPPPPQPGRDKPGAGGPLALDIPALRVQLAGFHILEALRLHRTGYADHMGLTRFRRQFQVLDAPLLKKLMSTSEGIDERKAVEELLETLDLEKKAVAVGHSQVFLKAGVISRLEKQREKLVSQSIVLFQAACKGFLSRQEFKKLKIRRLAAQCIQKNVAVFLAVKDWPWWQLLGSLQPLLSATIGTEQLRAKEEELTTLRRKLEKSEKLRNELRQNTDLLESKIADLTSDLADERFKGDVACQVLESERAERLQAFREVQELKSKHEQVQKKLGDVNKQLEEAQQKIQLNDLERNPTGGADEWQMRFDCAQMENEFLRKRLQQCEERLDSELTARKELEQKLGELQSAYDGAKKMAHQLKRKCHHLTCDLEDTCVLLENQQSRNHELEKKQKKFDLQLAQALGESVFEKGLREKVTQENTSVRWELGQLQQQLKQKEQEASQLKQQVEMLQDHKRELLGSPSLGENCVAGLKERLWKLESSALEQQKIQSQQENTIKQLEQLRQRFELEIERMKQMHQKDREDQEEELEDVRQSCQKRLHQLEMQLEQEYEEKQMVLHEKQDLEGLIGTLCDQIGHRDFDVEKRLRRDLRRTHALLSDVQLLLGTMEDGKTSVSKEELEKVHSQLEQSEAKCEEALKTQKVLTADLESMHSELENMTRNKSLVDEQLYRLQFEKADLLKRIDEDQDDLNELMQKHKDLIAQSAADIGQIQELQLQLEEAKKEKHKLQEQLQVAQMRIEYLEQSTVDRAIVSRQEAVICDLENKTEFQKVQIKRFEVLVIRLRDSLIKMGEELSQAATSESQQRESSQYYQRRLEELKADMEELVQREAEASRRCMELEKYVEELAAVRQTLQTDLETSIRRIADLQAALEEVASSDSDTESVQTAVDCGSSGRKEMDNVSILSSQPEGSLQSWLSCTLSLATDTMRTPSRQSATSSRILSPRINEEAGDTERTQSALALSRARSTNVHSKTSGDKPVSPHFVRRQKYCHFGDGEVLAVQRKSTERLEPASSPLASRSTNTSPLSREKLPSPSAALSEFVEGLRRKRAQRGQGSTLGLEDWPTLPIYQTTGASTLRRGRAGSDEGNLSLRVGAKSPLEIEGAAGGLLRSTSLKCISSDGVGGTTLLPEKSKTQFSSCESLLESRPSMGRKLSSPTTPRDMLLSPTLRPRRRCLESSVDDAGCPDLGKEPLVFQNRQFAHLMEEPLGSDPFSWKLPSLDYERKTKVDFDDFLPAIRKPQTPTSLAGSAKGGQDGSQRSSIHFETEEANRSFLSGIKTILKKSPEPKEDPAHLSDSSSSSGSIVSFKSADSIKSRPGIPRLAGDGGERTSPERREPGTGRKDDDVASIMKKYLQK
# UniProt P13533, whole entry, looked up: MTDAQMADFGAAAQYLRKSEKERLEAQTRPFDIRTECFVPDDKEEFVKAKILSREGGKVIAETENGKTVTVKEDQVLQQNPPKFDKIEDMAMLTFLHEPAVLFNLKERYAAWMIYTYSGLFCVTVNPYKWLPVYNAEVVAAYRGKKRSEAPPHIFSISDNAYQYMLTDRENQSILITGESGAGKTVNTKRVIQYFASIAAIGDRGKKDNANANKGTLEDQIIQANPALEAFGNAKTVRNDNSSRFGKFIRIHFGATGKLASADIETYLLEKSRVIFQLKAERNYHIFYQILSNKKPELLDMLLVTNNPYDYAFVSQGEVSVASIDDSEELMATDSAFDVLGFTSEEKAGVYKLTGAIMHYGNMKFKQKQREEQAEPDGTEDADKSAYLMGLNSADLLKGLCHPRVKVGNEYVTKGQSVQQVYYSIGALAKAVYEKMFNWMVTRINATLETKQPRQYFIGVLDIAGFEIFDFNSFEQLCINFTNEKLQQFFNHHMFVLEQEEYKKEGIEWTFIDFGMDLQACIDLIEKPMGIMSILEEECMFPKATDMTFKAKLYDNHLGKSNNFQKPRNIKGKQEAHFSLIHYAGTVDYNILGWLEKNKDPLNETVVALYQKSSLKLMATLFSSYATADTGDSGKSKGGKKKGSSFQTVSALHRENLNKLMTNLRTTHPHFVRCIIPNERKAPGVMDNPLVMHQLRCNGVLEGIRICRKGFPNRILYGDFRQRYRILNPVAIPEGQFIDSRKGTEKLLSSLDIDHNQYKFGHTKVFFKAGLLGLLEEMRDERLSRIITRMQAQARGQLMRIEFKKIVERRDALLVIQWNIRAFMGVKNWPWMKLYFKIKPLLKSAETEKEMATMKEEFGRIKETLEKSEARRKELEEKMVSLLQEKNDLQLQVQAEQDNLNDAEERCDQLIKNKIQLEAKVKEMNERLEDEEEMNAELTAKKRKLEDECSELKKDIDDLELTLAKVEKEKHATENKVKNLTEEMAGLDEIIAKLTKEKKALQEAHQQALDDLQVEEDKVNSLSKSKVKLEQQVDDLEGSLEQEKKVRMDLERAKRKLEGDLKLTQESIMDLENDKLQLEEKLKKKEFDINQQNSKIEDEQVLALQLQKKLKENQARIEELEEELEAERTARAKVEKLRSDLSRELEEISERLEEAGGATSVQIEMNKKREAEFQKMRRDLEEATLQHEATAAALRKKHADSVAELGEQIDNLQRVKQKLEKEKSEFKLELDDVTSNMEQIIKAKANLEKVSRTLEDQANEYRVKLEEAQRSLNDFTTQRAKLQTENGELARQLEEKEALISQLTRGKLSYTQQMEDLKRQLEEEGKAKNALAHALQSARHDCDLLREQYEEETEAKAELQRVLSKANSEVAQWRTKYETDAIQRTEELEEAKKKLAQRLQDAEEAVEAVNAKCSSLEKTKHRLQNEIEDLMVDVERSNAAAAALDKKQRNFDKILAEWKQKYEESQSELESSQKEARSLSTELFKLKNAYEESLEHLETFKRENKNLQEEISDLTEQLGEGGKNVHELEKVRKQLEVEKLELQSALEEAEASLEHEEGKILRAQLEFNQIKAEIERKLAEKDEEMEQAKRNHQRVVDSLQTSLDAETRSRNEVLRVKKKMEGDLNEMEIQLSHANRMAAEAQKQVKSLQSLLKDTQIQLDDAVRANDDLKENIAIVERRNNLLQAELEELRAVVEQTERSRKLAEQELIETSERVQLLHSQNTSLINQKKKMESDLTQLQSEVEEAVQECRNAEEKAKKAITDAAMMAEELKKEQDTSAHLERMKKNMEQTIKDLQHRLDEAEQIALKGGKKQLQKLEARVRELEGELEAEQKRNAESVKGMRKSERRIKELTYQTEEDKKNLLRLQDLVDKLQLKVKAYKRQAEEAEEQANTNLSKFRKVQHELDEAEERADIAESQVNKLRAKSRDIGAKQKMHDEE
# UniProt P49321, whole entry, looked up: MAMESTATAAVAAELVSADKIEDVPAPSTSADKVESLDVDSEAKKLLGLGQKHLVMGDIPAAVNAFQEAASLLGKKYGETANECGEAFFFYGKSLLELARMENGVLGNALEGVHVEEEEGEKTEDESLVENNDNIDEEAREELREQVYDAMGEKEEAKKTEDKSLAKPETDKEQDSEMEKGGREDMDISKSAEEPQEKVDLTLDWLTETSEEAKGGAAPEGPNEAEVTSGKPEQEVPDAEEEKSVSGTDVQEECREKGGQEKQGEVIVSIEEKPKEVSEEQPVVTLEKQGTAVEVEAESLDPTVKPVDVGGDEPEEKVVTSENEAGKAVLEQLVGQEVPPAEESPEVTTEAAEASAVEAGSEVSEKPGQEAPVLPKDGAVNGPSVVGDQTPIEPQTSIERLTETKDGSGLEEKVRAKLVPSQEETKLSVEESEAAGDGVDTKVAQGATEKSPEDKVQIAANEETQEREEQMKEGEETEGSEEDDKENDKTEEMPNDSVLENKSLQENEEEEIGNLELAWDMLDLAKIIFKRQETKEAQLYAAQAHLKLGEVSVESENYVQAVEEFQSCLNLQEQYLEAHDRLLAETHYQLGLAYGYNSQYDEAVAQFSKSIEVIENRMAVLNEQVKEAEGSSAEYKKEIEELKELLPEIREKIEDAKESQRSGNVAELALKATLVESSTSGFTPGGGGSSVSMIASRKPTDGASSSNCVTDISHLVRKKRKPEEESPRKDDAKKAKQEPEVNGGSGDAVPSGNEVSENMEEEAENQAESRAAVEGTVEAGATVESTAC
# UniProt Q9UK23: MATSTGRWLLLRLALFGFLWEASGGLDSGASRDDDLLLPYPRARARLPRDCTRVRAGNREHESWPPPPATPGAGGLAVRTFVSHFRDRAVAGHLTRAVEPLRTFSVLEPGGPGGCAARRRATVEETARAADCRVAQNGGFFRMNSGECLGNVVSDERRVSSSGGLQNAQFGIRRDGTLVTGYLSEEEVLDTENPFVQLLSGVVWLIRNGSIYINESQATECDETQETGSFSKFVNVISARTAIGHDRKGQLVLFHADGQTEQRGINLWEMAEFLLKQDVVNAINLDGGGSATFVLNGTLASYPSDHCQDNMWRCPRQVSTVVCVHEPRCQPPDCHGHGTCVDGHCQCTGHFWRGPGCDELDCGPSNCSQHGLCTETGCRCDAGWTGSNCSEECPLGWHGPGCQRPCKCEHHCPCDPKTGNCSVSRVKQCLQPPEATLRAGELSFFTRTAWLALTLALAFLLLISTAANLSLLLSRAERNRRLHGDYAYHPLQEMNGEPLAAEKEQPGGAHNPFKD
# UniProt P01106: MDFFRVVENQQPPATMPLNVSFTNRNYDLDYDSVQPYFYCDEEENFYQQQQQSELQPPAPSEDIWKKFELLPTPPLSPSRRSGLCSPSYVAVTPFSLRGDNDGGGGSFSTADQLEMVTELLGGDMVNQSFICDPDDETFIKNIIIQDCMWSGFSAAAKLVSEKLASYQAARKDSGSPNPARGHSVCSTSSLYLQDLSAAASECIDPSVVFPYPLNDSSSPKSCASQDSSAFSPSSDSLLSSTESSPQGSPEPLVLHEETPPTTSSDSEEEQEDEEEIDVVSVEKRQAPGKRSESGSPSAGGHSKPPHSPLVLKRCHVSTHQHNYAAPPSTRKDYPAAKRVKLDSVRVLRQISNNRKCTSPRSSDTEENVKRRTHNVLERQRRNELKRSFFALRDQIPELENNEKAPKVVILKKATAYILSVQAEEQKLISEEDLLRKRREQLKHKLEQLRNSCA
# UniProt Q5TBK1: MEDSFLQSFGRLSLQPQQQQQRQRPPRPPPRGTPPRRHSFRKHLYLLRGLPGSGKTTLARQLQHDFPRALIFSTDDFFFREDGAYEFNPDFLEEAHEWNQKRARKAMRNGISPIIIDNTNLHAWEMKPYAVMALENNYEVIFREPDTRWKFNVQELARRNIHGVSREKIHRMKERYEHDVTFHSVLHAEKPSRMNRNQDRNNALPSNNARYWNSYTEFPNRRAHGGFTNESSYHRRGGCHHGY
# What was measured:
# Assay in all cases: log2 fold change, soluble protein after heating vs DMSO (PISA); higher = thermal stabilisation; K562 lysate, 10 uM; active = over 0.2 and 3.5 SD of the protein, either way, in both replicates (recomputed)
# [1] = compound: CNC(=O)C1=CC=CC=C1NC2=NC(=NC=C2Cl)NC3=C(C=C(C=C3)N4CCOCC4)OC
# Procedure, shortened: (§1)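 To prepare the extract, K562 pellets were dounce-homogenised in PBS pH 7.4 with 1 mM MgCl2, giving crude material at 1 mg/mL protein. This was treated with 10 μM compound for 30 min, then heated in aliquots for 3 min over 48°C-58°C before pooling and addition of NP-40 to 0.5% at 4°C. Centrifugation at 21,000xg for 90 min left soluble protein in the supernatant, which TMTpro 16plex LC-MS/MS quantified with equalised channel sums. Results are log-two fold changes in thermal stability compared with solvent controls, from duplicates.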
# defactinib = compound: CNC(=O)c1ccc(Nc2ncc(C(F)(F)F)c(NCc3nccnc3N(C)S(C)(=O)=O)n2)cc1 [defactinib]
# Procedure, shortened: as §1
# [2] = compound: CNc1nc(-c2ccc3c(N)n[nH]c3c2)cc(N2C[C@@H](C(=O)NC3CCCCC3)CC[C@H]2C)n1
# Procedure, shortened: as §1
# encorafenib = compound: COC(=O)N[C@@H](C)CNc1nccc(-c2cn(C(C)C)nc2-c2cc(Cl)cc(NS(C)(=O)=O)c2F)n1 [encorafenib]
# Procedure, shortened: as §1
# [3] = compound: COC(=O)[C@H](CCSC)NC(=O)C1=C(C=C(C=C1)NC[C@H](CS)N)C2=CC=CC=C2
# Procedure, shortened: as §1
# [4] = compound: COc1cc2nc(-c3cc(F)ccc3O)nc(N[C@@H]3CNC[C@H]3C(C)(C)O)c2cc1OC
# Procedure, shortened: as §1
# lapatinib = compound: CS(=O)(=O)CCNCc1ccc(-c2ccc3ncnc(Nc4ccc(OCc5cccc(F)c5)c(Cl)c4)c3c2)o1 [lapatinib]
# Procedure, shortened: as §1
# pictilisib = compound: CS(=O)(=O)N1CCN(Cc2cc3nc(-c4cccc5[nH]ncc45)nc(N4CCOCC4)c3s2)CC1 [pictilisib]
# Procedure, shortened: as §1
# crizotinib = compound: C[C@@H](Oc1cc(-c2cnn(C3CCNCC3)c2)cnc1N)c1c(Cl)ccc(F)c1Cl [crizotinib]
# Procedure, shortened: as §1
# duvelisib = compound: C[C@H](Nc1ncnc2nc[nH]c12)c1cc2cccc(Cl)c2c(=O)n1-c1ccccc1 [duvelisib]
# Procedure, shortened: as §1
# tozasertib = compound: Cc1cc(Nc2cc(N3CCN(C)CC3)nc(Sc3ccc(NC(=O)C4CC4)cc3)n2)n[nH]1 [tozasertib]
# Procedure, shortened: as §1
# doramapimod = compound: Cc1ccc(-n2nc(C(C)(C)C)cc2NC(=O)Nc2ccc(OCCN3CCOCC3)c3ccccc23)cc1 [doramapimod]
# Procedure, shortened: as §1
# bafetinib = compound: Cc1ccc(NC(=O)c2ccc(CN3CC[C@H](N(C)C)C3)c(C(F)(F)F)c2)cc1Nc1nccc(-c2cncnc2)n1 [bafetinib]
# Procedure, shortened: as §1
# alvocidib = compound: CN1CC[C@H](c2c(O)cc(O)c3c(=O)cc(-c4ccccc4Cl)oc23)[C@H](O)C1 [alvocidib]
# Procedure, shortened: as §1
# alisertib = compound: COc1cc(Nc2ncc3c(n2)-c2ccc(Cl)cc2C(c2c(F)cccc2OC)=NC3)ccc1C(=O)O [alisertib]
# Procedure, shortened: as §1
# gefitinib = compound: COc1cc2ncnc(Nc3ccc(F)c(Cl)c3)c2cc1OCCCN1CCOCC1 [gefitinib]
# Procedure, shortened: as §1
# [5] = compound: C[C@H](C1=CC=C(C=C1)C(=O)NC2=C3C=CNC3=NC=C2)N
# Procedure, shortened: as §1
# gandotinib = compound: Cc1cc(Nc2cc(CN3CCOCC3)c3nc(C)c(Cc4ccc(Cl)cc4F)n3n2)n[nH]1 [gandotinib]
# Procedure, shortened: as §1
# [6] = compound: Cc1cccc(CC(=O)N2CCc3c2ccc(-c2cn(C)c4ncnc(N)c24)c3F)n1
# Procedure, shortened: as §1
# Tubastatin A = compound: CN1CCc2c(c3ccccc3n2Cc2ccc(C(=O)NO)cc2)C1 [Tubastatin A]
# Procedure, shortened: as §1
target,measurement,setting,value
MYO18B isoform 3 (UniProt Q8IUG5),log2 fold change,[1],inactive: 0.19
same,log2 fold change,defactinib,inactive: -0.022
same,log2 fold change,[2],inactive: -0.001
same,log2 fold change,encorafenib,inactive: 0.028
same,log2 fold change,[3],inactive: 0.057
same,log2 fold change,[4],inactive: 0.034
same,log2 fold change,lapatinib,inactive: -0.024
same,log2 fold change,pictilisib,inactive: 0.03
same,log2 fold change,crizotinib,inactive: -0.029
same,log2 fold change,duvelisib,inactive: 0.026
same,log2 fold change,tozasertib,inactive: 0.03
same,log2 fold change,doramapimod,inactive: -0.036
same,log2 fold change,bafetinib,inactive: -0.075
MUC5B (UniProt Q9HC84),log2 fold change,alvocidib,inactive: -0.128
same,log2 fold change,[1],inactive: -0.071
same,log2 fold change,[2],inactive: -0.009
same,log2 fold change,encorafenib,inactive: -0.238
same,log2 fold change,[3],inactive: 0.587
same,log2 fold change,alisertib,inactive: 0.074
same,log2 fold change,[4],inactive: -0.061
same,log2 fold change,gefitinib,inactive: 0.009
same,log2 fold change,lapatinib,inactive: -0.071
same,log2 fold change,crizotinib,inactive: -0.042
same,log2 fold change,[5],inactive: 0.268
same,log2 fold change,duvelisib,inactive: 0.023
same,log2 fold change,gandotinib,inactive: 0.173
same,log2 fold change,tozasertib,inactive: 0.993
same,log2 fold change,doramapimod,inactive: -0.013
same,log2 fold change,[6],inactive: 0.603
MYH6 (UniProt P13533),log2 fold change,Tubastatin A,inactive: 0.142
same,log2 fold change,[1],inactive: -0.06
same,log2 fold change,encorafenib,inactive: -0.048
same,log2 fold change,[3],inactive: 0.082
same,log2 fold change,[4],inactive: 0.206
same,log2 fold change,lapatinib,inactive: -0.111
same,log2 fold change,pictilisib,active: -1.52
same,log2 fold change,crizotinib,inactive: -0.097
same,log2 fold change,tozasertib,inactive: 0.009
same,log2 fold change,doramapimod,inactive: -0.245
same,log2 fold change,bafetinib,inactive: -0.132
NASP isoform 2 (UniProt P49321),log2 fold change,alvocidib,inactive: 0.36
same,log2 fold change,[4],inactive: -0.029
same,log2 fold change,lapatinib,inactive: 0.197
same,log2 fold change,pictilisib,inactive: 0.017
same,log2 fold change,[5],inactive: 0.865
same,log2 fold change,gandotinib,inactive: -0.608
same,log2 fold change,bafetinib,inactive: -0.12
same,log2 fold change,[6],inactive: -0.606
MYT1L (UniProt Q9UL68),log2 fold change,Tubastatin A,inactive: 0.112
same,log2 fold change,[4],inactive: -0.007
same,log2 fold change,lapatinib,inactive: -0.033
NCOA7 isoform 2 (UniProt Q8NI08),log2 fold change,[2],inactive: 0.121
same,log2 fold change,[4],inactive: 0.157
same,log2 fold change,lapatinib,inactive: -0.072
same,log2 fold change,duvelisib,inactive: 0.026
NAGPA (UniProt Q9UK23),log2 fold change,alvocidib,inactive: 0.127
same,log2 fold change,[1],inactive: 0.027
same,log2 fold change,defactinib,inactive: -0.095
same,log2 fold change,[2],inactive: 0
same,log2 fold change,alisertib,inactive: 0.031
same,log2 fold change,[4],inactive: 0.156
same,log2 fold change,gefitinib,inactive: -0.162
same,log2 fold change,lapatinib,inactive: -0.086
same,log2 fold change,pictilisib,inactive: -0.115
same,log2 fold change,[5],inactive: 0.234
same,log2 fold change,duvelisib,inactive: 0.041
same,log2 fold change,gandotinib,inactive: -0.095
same,log2 fold change,bafetinib,inactive: 0.024
same,log2 fold change,[6],inactive: -0.23
NACA2 (UniProt Q9H009),log2 fold change,Tubastatin A,inactive: -0.153
same,log2 fold change,[2],inactive: -0.081
same,log2 fold change,duvelisib,inactive: 0.064
MYC isoform 2 (UniProt P01106),log2 fold change,alvocidib,inactive: 0.036
same,log2 fold change,Tubastatin A,inactive: -0.075
same,log2 fold change,alisertib,inactive: 0.008
same,log2 fold change,gefitinib,inactive: -0.094
same,log2 fold change,[5],inactive: -0.02
same,log2 fold change,gandotinib,inactive: 0.069
same,log2 fold change,[6],inactive: 0.028
N4BP2L1 (UniProt Q5TBK1),log2 fold change,alvocidib,inactive: -0.147
same,log2 fold change,defactinib,inactive: -0.269
same,log2 fold change,encorafenib,inactive: -0.012
same,log2 fold change,[3],inactive: 0.053
same,log2 fold change,alisertib,inactive: 0.055
same,log2 fold change,[4],inactive: -0.017
same,log2 fold change,gefitinib,inactive: 0.087
same,log2 fold change,lapatinib,inactive: -0.148
same,log2 fold change,pictilisib,inactive: -0.003
same,log2 fold change,[5],inactive: -0.331
same,log2 fold change,gandotinib,inactive: 0.079
same,log2 fold change,tozasertib,inactive: 0.15
same,log2 fold change,bafetinib,inactive: -0.327
same,log2 fold change,[6],inactive: 0.226
NAMPT (UniProt C9JF35),log2 fold change,alvocidib,inactive: 0.012
same,log2 fold change,[1],inactive: 0.07
same,log2 fold change,[4],inactive: -0.083
same,log2 fold change,lapatinib,inactive: -0.325
same,log2 fold change,[5],inactive: -0.313
same,log2 fold change,gandotinib,inactive: 0.011
same,log2 fold change,[6],inactive: 0.118
NACA4P (UniProt Q9BZK3),log2 fold change,Tubastatin A,inactive: 0.105
same,log2 fold change,[1],inactive: 0.003
same,log2 fold change,defactinib,inactive: 0.02
same,log2 fold change,[2],inactive: 0.074
same,log2 fold change,encorafenib,inactive: 0.063
same,log2 fold change,[3],inactive: -0.111
same,log2 fold change,alisertib,inactive: -0.011
same,log2 fold change,[4],inactive: 0.034
same,log2 fold change,gefitinib,inactive: -0.003
same,log2 fold change,lapatinib,inactive: -0.048
same,log2 fold change,pictilisib,inactive: -0.139
same,log2 fold change,crizotinib,inactive: -0.135
same,log2 fold change,duvelisib,inactive: 0.161
same,log2 fold change,tozasertib,inactive: -0.106
same,log2 fold change,doramapimod,inactive: -0.03
same,log2 fold change,bafetinib,inactive: -0.158
MXRA8 isoform 2 (UniProt Q9BRK3),log2 fold change,pictilisib,inactive: -0.016
same,log2 fold change,bafetinib,inactive: 0.024
NARS1 (UniProt K7ENF0),log2 fold change,crizotinib,inactive: 0.133
same,log2 fold change,doramapimod,inactive: -0.117

# Laid out differently: entries from further up.
target | measurement | setting | value
MUC5B (UniProt Q9HC84) | log2 fold change | gandotinib | inactive: 0.173
same | log2 fold change | tozasertib | inactive: 0.993
same | log2 fold change | doramapimod | inactive: -0.013
same | log2 fold change | [6] | inactive: 0.603

# Another view of some results above:
target | measurement | setting | value
NACA4P (UniProt Q9BZK3) | log2 fold change | gefitinib | inactive: -0.003
same | log2 fold change | lapatinib | inactive: -0.048
